Results deposited as PubChem BioAssay AID1259425 (University of Nebraska Medical Center, 2018).

Assay: 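Find knockdowns that reproduce the gene expression pattern seen when KSR1 is lost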 (primary screen)
System: HCT116 human colon cancer cells
Reagents: siRNA pool against human genes, 50 nM siRNA
Read-out: 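mRNA of six signature genes measured together by branched-DNA assay after 50 nM siRNA pool, blank removed, divided by geometric mean of two housekeeping genes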
Direction: BNIP3L mRNA: higher = more BNIP3L transcript after knockdown; NDRG1 mRNA: higher = more NDRG1 transcript after knockdown; BNIP3 mRNA: higher = more BNIP3 transcript after knockdown; ALDOC mRNA: higher = more ALDOC transcript after knockdown
Shown is a random part of about 14,000 reagents tested. Not all columns of the deposit are shown. Not stated in the record: the time to read-out.

Gene	BNIP3L mRNA, set 1	NDRG1 mRNA, set 1	BNIP3 mRNA, set 1	ALDOC mRNA, set 1
ZNF654	0.0892	0.168	0.267	0.0265
RASGRP3	0.0693	0.198	0.353	0.0574
PZP	0.121	0.269	0.344	0.0257
PLEKHG6	0.0997	0.504	0.193	0.0135
CD81	0.0596	0.212	0.415	0.0275
ABCG4	0.208	0.265	0.259	0.0276
PACS2	0.102	0.0824	0.377	0.0179
KCNB1	0.148	0.134	0.209	0.0622
BIRC3	0.0854	0.119	0.241	0.0326
RGR	0.367	0.876	0.79	0.0833
AP5Z1	0.0987	0.351	0.212	0.0254
XRN1	0.234	0.106	0.32	0.0301
METTL22	0.118	0.248	0.312	0.0253
GSTA3	0.0748	0.0632	0.149	0.0142
VSIG4	0.23	0.276	0.295	0.0331
NPY4R	0.136	0.463	0.489	0.0349
NUDT21	0.133	0.494	0.502	0.0223

Single entries from above:
NUDT21, BNIP3L mRNA, set 1: 0.133
RGR, BNIP3L mRNA, set 1 = 0.367

Continued.
Gene	BNIP3L mRNA, set 1	NDRG1 mRNA, set 1	BNIP3 mRNA, set 1	ALDOC mRNA, set 1
NGFR	0.107	0.239	0.272	0.00974
MEA1	0.0786	0.271	0.277	0.0125
WDR5B	0.18	0.163	0.29	0.0422
LXN	0.151	0.258	0.379	0.0431
LETMD1	0.0454	0.186	0.3	0.015
RPIA	0.124	0.4	0.28	0.0316
SRSF11	0.0419	0.189	0.368	0.0192
ATP6V1F	0.183	0.124	0.676	-0.00674
CTAG1B	0.548	0.475	0.662	0.147
SNUPN	0.0628	0.107	0.192	0.0212
KRTAP9-3	0.252	0.259	0.439	0.0692
SLC35B1	0.0514	0.107	0.202	0.0179
RIOK3	0.272	0.0846	0.536	0.00725
PFN2	0.0968	0.332	0.171	0.0068
FABP3	0.0642	0.106	0.235	0.0133
ADRB1	0.176	0.218	0.263	0.02
DOT1L	0.113	0.192	0.215	0.0166
ABHD10	0.0832	0.0508	0.228	0.0255
RANGRF	0.0982	0.124	0.362	0.0191
ANKRD7	0.0636	0.0888	0.103	0.0277
P4HA1	0.0735	0.106	0.229	0.00917
PTGDR	0.246	0.238	0.298	0.0473
PPFIA3	0.0798	0.105	0.301	0.0367
NDUFA6	0.14	0.106	0.227	0.0226
CHMP2A	0.24	0.73	0.551	0.133
LAMP5	0.097	0.155	0.253	0.0275
PRAC1	0.15	0.259	0.278	0.0285
PINX1	0.0893	0.0925	0.301	0.0112
CDH9	0.16	0.198	0.193	0.0136
ISCU	0.167	1.87	0.632	0.0538
RUBCN	0.264	0.327	0.265	0.099
PLEKHA1	0.0907	0.0571	0.327	0.00863
LZTS2	0.183	0.185	0.383	0.0474
